Results are given in words; binding and its absence hold for the method and conditions named. In cells and extracts the contact can be indirect.
Biological target: T1, STOML2 in 293 T cells (co-immunoprecipitation with DTYMK) (human) (UniProt Q9UJZ1)
T1 sequence: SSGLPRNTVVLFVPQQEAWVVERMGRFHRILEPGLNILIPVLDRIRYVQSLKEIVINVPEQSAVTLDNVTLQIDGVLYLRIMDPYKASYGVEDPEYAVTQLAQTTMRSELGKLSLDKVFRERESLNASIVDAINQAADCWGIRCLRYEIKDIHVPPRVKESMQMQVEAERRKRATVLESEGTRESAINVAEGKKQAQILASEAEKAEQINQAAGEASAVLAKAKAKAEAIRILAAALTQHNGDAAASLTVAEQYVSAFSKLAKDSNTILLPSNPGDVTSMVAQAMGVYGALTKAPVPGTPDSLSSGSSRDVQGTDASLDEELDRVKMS
Assay: co-IP; lysate of 293 T cells; protein-A Sepharose beads with anti-His, anti-PHB or anti-SLP2 antibody as indicated, 4 °C overnight, anti-IgG as control; western blotting

binding: no binding
B1: DTYMK in 293 T cells (co-immunoprecipitation with STOML2) (protein, UniProt P23919 1-212)
chain: MAARRGALIVLEGVDRAGKSTQSRKLVEALCAAGHRAELLRFPERSTEIGKLLSSYLQKKSDVEDHSVHLLFSANRWEQVPLIKEKLSQGVTLVVDRYAFSGVAFTGAKENFSLDWCKQPDVGLPKPDLVLFLQLQLADAAKRGAFGHERYENGAFQERALRCFHQLMKDTTLNWKMVDASKSIEAVHEDIRVLSEDAIRTATEKPLGELWK

Reference: paper PMC8591804
